Results are given in words; binding and its absence hold for the method and conditions named. Some results given as binding are weak or reduced against the parent protein; the word gives no strength.

Sequences of proteins named here, by UniProt entry; tags and fusion partners are left off. Residues count along the entry.
UniProt Q9NPY3, residues 22-580: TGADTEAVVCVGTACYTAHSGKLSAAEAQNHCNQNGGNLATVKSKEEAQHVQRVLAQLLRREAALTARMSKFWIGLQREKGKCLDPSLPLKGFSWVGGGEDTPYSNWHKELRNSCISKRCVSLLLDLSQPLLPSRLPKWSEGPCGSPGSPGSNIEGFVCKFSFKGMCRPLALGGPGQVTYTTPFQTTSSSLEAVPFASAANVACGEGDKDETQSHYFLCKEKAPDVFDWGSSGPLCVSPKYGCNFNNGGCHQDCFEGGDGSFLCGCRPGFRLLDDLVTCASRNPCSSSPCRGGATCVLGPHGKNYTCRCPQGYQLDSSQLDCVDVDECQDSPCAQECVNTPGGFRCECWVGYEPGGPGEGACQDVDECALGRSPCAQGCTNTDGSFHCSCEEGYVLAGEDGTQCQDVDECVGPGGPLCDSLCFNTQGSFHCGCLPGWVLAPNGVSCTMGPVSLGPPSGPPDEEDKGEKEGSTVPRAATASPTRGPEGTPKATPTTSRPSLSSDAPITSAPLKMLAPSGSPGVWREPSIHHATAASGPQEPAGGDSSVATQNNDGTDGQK

Experiment [1] has as its target human CD93/Fc fusion protein (human) (UniProt Q9NPY3). The experiment is described as follows: ELISA, coated human CD93/Fc fusion protein.
Experiment [2] shares this target. Kind of experiment: ELISA, coated human CD93/Fc, HRP anti-human kappa, OD490.

B1: humanized F11-G1 (Hu F11-G1) (antibody, V domains shown)
VH: QVQLVQSGAEVKKPGASVKVSCKASGYTFTDYHMDWVKQAPGQGLEWIGDIDPYNGDTVFNQKFKGKATMTRDTSISTAYMELSRLRSDDTAVYYCTRGGDYWGQGTLVTVSS
VL: DIVMTQTPLSLSVTPGQPASISCRSSQTLVHSNGNTYLHWYLQKPGQPPQLLIYKVSNRFSGVPDRFSGSGSGTDFTLKISRVEAEDVGVYFCSQSTHVPFTFGQGTKLEIK
notes: The light chain was detected with anti-human kappa; also called humanized mCD93 antibody (F11); humanized anti-CD93 antibody
Take B1: the binding result in experiment [1] and in experiment [2] was “binds” each time.

B2: HuF11-G1 mutant (HuF11-G1 TM) (antibody, V domains shown)
VH: B1 VH
VL: B1 VL
Regarding B2, the binding entry in experiment [1] is “binds”.

Values taken from patent US20220133794A1 (Stanford University, published 2022).
